Some entries share one result that the patent states for a list of compounds. At least one structure is not confirmed: it was looked up by name or label, or the drawing left a doubt.
Test: In vitro metabolic stability using human liver microsomes
Conditions: at both 1 and 10 μM, 30 min
Method: The metabolic stability of 15 GABAA receptor ligands using human liver microsomes was studied. The test articles were incubated at two concentrations (1 and 10 μM) and aliquots (100 μl) were removed at various time points (0, 15, 30 and 60 minutes), and analyzed by LC-MS/MS.
The test articles were incubated at two concentrations (1 and 10 μM) in 96-well plate format with active or heat-inactivated human liver microsomes and cofactors. Aliquots were removed at 0, 15, 30 and 60 minutes and mixed with acetonitrile containing internal standard for analysis. Samples were extracted and assayed using a liquid chromatography/tandem mass spectrometry (LC-MS/MS) analytical method.
Pooled human liver microsomes (Lot #38289, pool of 150 different male and female donor livers) were obtained from BD Biosciences Corporation (Woburn, Mass.). Microsomes were stored at ˜−135° C. until use. […]
Samples were analyzed by LC-MS/MS in multiple reaction monitoring mode using positive-ion electrospray ionization. […]
Data from the metabolic stability assays were transferred to and processed in a Microsoft Excel spreadsheet. To determine metabolic stability, the percent remaining at each time point was calculated by dividing the peak area ratio of test article/internal standard at each time point by the peak area ratio at 0 min multiplied by 100.

## C#Cc1ccc2c(c1)C(c1ccccc1)=NCc1c(C(=O)OCC)ncn1-2 [XHe-II-053]
  % remaining: less than 14%
